This is an account of results in PMC9170289.

The chains behind the UniProt entries cited, without tags or fusion partners. Where a name states a change or a piece, a line headed by the entry shows the natural chain unless it says otherwise.
UniProt P53550: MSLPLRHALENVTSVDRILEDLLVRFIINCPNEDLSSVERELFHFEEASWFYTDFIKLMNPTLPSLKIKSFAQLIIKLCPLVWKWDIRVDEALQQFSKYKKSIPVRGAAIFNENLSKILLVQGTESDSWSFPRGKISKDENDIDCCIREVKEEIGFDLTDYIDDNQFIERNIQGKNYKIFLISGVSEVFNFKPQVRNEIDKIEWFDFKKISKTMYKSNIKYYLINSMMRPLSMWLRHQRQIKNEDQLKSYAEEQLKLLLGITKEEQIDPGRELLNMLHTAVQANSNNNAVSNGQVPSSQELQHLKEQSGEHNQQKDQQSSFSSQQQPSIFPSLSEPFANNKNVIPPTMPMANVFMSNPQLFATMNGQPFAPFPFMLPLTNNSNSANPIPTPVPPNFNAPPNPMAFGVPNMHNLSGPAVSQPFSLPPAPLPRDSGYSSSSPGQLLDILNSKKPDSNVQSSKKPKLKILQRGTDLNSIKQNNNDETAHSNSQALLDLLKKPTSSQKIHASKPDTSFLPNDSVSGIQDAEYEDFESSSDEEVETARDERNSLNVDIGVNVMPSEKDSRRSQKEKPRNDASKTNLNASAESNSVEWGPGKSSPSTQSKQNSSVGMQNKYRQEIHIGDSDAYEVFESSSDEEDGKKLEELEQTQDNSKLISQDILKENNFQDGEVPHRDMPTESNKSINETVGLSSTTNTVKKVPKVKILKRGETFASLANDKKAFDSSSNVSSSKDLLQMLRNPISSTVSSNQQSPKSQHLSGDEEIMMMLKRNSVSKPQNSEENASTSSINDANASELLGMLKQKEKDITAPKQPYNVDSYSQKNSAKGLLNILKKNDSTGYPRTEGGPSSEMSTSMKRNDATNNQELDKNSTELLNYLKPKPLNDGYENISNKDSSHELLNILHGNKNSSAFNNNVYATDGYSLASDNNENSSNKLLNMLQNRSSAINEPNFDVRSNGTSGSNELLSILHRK

Holding throughout (experiment): two-hybrid; GAL4(DB) fusion and GAL4(AD) fusion cotransformed into the wild-type tester strain GGY1::171; X-Gal colony colour on SSX plates, 30°C; pairs said to be unaffected were also tested in upf1Δ, pat1Δ, scd6Δ, edc3Δ or dcp2-N245 derivatives
In experiment [1] the target is Dcp2 LD9-4 (leucine-rich motifs L9 to L4 deleted) (S. cerevisiae) (UniProt P53550).
For experiment [2], the target named is Dcp2 LD9-3 (leucine-rich motifs L9 to L3 deleted) (S. cerevisiae) (UniProt P53550).
Experiment [3] has as its target Dcp2 LD1-4 (leucine-rich motifs L1 to L4 deleted) (S. cerevisiae) (UniProt P53550).
The target in experiment [4] is Dcp2 E3D (Edc3-binding motif E3 deleted) (S. cerevisiae) (UniProt P53550).
The target in experiment [5] is Dcp2 LD1-7 (leucine-rich motifs L1 to L7 deleted) (S. cerevisiae) (UniProt P53550).
Experiment [6] concerns the target Dcp2 LD1-5 (leucine-rich motifs L1 to L5 deleted) (S. cerevisiae) (UniProt P53550).
Experiment [7] has as its target Dcp2 ID (inhibitory element IE deleted) (S. cerevisiae) (UniProt P53550).
The target in experiment [8] is Dcp2 LD1-8 (leucine-rich motifs L1 to L8 deleted) (S. cerevisiae) (UniProt P53550).
Experiment [9] deals with Dcp2 LD9-2 (leucine-rich motifs L9 to L2 deleted) (S. cerevisiae) (UniProt P53550).
Experiment [10] deals with Dcp2 LD1-9 (all nine leucine-rich motifs L1 to L9 deleted) (S. cerevisiae) (UniProt P53550).
Experiment [11] addresses Dcp2 LD9-6 (leucine-rich motifs L9 to L6 deleted) (S. cerevisiae) (UniProt P53550).
The target in experiment [12] is Dcp2 U1D1-U1D2 (both Upf1-binding motifs deleted) (S. cerevisiae) (UniProt P53550).
Experiment [13] deals with Dcp2 LD1-6 (leucine-rich motifs L1 to L6 deleted) (S. cerevisiae) (UniProt P53550).
Experiment [14] deals with Dcp2 LD9 (last leucine-rich motif L9 deleted) (S. cerevisiae) (UniProt P53550).
Experiment [15] addresses Dcp2 U1D1 (first Upf1-binding motif U1_1 deleted) (S. cerevisiae) (UniProt P53550).
Experiment [16] has as its target Dcp2 U1D2 (second Upf1-binding motif U1_2 deleted) (S. cerevisiae) (UniProt P53550).
Experiment [17] concerns the target Dcp2 LD1-3 (leucine-rich motifs L1 to L3 deleted) (S. cerevisiae) (UniProt P53550).

Results are given in words; binding and its absence hold for the method and conditions named. For some assays here: Binding can be weak; no strength is given.

B1: Edc3 (protein, UniProt P39998 1-551)
chain: MSQFVGFGVQVELKDGKLIQGKIAKATSKGLTLNDVQFGDGGKSQAFKVRASRLKDLKVLTVASQSGKRKQQRQQQQQNDYNQNRGEHIDWQDDDVSKIKQQEDFDFQRNLGMFNKKDVFAQLKQNDDILPENRLQGHNRKQTQLQQNNYQNDELVIPDAKKDSWNKISSRNEQSTHQSQPQQDAQDDLVLEDDEHEYDVDDIDDPKYLPITQSLNITHLIHSATNSPSINDKTKGTVINDKDQVLAKLGQMIISQSRSNSTSLPAANKQTTIRSKNTKQNIPMATPVQLLEMESITSEFFSINSAGLLENFAVNASFFLKQKLGGRARLRLQNSNPEPLVVILASDSNRSGAKALALGRHLCQTGHIRVITLFTCSQNELQDSMVKKQTDIYKKCGGKIVNSVSSLESAMETLNSPVEIVIDAMQGYDCTLSDLAGTSEVIESRIKSMISWCNKQRGSTKVWSLDIPNGFDAGSGMPDIFFSDRIEATGIICSGWPLIAINNLIANLPSLEDAVLIDIGIPQGAYSQRTSLRKFQNCDLFVTDGSLLLDL
For the molecule B1, the binding result in experiment [1] was “binds”; in [2], “binds”; in [3] it was “binds”; in [4], “no binding”; in [5], “binds”; in experiment [6] it was “binds”. Moreover, the binding entry in experiment [7], in experiment [8], in experiment [9], in [10], in experiment [11] and in experiment [12] was “binds” throughout. For the same molecule, the binding entry in experiment [13] is reported as “binds”.

B2: Scd6 (protein, UniProt P45978 1-349)
chain: MSQYIGKTISLISVTDNRYVGLLEDIDSEKGTVTLKEVRCFGTEGRKNWGPEEIYPNPTVYNSVKFNGSEVKDLSILDANINDIQPVVPQMMPPASQFPPQQAQSPPQAQAQAHVQTNPQVPKPESNVPAAVAGYGVYTPTSTETATASMNDKSTPQDTNVNSQSRERGKNGENEPKYQRNKNRSSNRPPQSNRNFKVDIPNEDFDFQSNNAKFTKGDSTDVEKEKELESAVHKQDESDEQFYNKKSSFFDTISTSTETNTNMRWQEEKMLNVDTFGQASARPRFHSRGLGRGRGNYRGNRGNRGRGGQRGNYQNRNNYQNDSGAYQNQNDSYSRPANQFSQPPSNVEF
Take B2: the binding result in experiment [3] was “binds”; in experiment [14], “binds”; in [4], “no binding”; in experiment [15], “binds”; in experiment [7], “binds”; in [16], “binds”. Moreover, the binding result in [17] is on record as “binds”.
